PubChem BioAssay AID504784, Drosophila RNAi Screening Center | 2011

- Purpose: 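Search for regulators of lipid droplet storage in oleate-fed fly cells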 (primary screen)
- System: Drosophila Kc167 embryonic cells
- Knock-down reagent: long dsRNA against Drosophila genes, about 250 ng dsRNA per well
- Time to read-out: 4 days
- Challenge: cells fed 400 µM oleic acid bound to BSA
- Detection: 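Cells imaged and segmented; ratio of lipid droplet area to nuclear area, log-transformed, then normalised as a B-score over the screen; higher means more stored lipid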
- Reading the numbers: droplet/nuclear area B-score: higher = more stored lipid (overstorage)
The screen tested about 17,000 reagents; below is a random part of those with a known target gene and a result. 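Each column is one replicate's B-score; the combined score over replicates was not deposited, so single values may mislead.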 The numbers tell different reagents against one gene apart. A plus sign joins genes that one reagent is predicted to hit.

gene	dsRNA no.	droplet/nuclear area B-score, replicate 1	droplet/nuclear area B-score, replicate 2	droplet/nuclear area B-score, replicate 3
CG3081	1	0.186	0.506	
CG5160	1	0.0096	0.253	
ImpE3	1	-0.281	0.643	
CR33294	1	-0.465	-0.753	
Nlg3	1	-0.0493	-0.744	
Nlg3	2	-0.04	-0.672	
Nlg3	3	-0.219	0.0616	
CG8065	1	0.4	-1.63	
ocn	1	1.14	1.16	
kumpel	1	0.124	1.6	
kumpel	2	-0.554	1.98	
kumpel	3	5.62	-0.919	
kumpel	4	1.08	0.0466	
kumpel	5	1.49	-0.899	
kumpel	6	0.407	0.0677	
Myo61F	1	-0.756	-0.0994	
Dscam1	1	0.547	-0.97	
Dscam1	2	0.213	0.594	
Dscam1	3	-0.836	0.532	
Snx17	1	0.129	-0.306	
Prosalpha4T1	1	-0.0588	-1.24	
nom	1	-0.14	-0.968	
eve	1	-3.01	0.354	
CG6414	1		0.539	
CG3568	1	2.31	1.22	
PDCD-5	1	1.76	1.09	
CG5167	1	0.0929	-0.404	
CG7872	1	1.11	2.46	-0.13
CG9372	1	1.75	0.996	
cwo	1	3.08	3.14	
CG31345	1	-1.5	2.31	
CG31345	2	-2.04	-0.508	
CG13244	1	-0.38	-0.36	
CG8229 + CG33199	1	4.41	1.14	
VhaAC45RP	1	-1.14	-0.251	
CkIIalpha-i1	1	0.612	-1.78	
Polr3F	1	0.335	2.58	
LIMK1	1	-0.617	1.64	0.23
Ugt37C2	1	0.262	-0.495	
CG9135	1	0.562	-1.05	
sip3	1	-1.1	3.31	
CR31958	1	-0.746	-0.348	
CR31958	2	1.43	2.33	
CG9150	1	-2.19	-1.22	
Hsp110	1	1.67	-0.255	1.99
CG6293	1	-0.0591	1.2	
Spn43Aa	1	-0.811	0.694	
CG32576	1	0.0547	0.356	
Chd1	1	0.342	0.231	
CG11777	1	-1.25	0.0166	
Vha100-2	1	-0.0916	-0.411	
CG3788	1	0.293	-2.32	
Pat1	1	2.26	0.567	0.773
EndoU	1	0.00548	-1.64	
CG15226 (retired record)	1	-0.0564	-0.801	
CG15226 (retired record)	2	0.603	0.808	
CG5849	1	-0.484	0.261	
sturkopf	1	0.0775		
lncRNA:CR32368	1	0.64	1.48	
CG17122	1	-0.265	0.821	
und	1	1.35	-0.0652	
CG14414	1	-0.019	0.552	
CG5681	1	-1.44	-1.47	
eIF3f2	1	1.24	-1.66	
CG14220	1	-1.27	-1.35	
Or49b	1	-0.392	-0.00209	
CG8925	1	0.273	0.659	
CG8925	2	1.8	0.186	
CG8925	3	0.936	0.386	
cGlr2	1	1.4	1.13	
CG5882	1	1.22	1.48	
Atg2	1	0.00576	2.46	
snk	1	-0.0325	-0.14	
CG9988	1	1.57	-0.506	
Sc2	1	-2.4	0.0495	
CG30151	1	1.31	-2.39	
Myo28B1	1	0.0713	-0.381	
U2A	1	-2.92	-0.427	
CG12003	1	-0.235	-0.0198	
CG17824 (retired record)	1	0.48	-0.00637	
CG3556	1	-1.01		
Nthl1	1	-0.422	1.27	
CSN5	1	-0.582	0.887	
CSN5	2	1.28	-1.53	

Individual results from above:
Result of CR31958 #2 in “droplet/nuclear area B-score, replicate 2”: 2.33
Under “droplet/nuclear area B-score, replicate 2”, CG31345 #1 is entered as 2.31
For “droplet/nuclear area B-score, replicate 1”, CG5167 shows 0.0929
For “droplet/nuclear area B-score, replicate 2”, Ugt37C2 shows -0.495
